This is an account of results in US20070257975A1, “Azo Compound, Ink Composition, and Colored Object” (priority 2004, published 2007).

Each structure is given as a SMILES string.

Data set [1] is described as follows: Bronzing property, surface observation of maximum-density printed part on special glossy paper.
A short description of data set [2]: Ejection property on thermal-head inkjet printer (BJ-S630), continuous printing on plain paper. The following applies: printer having a thermal head.

With `Cc1cc(Nc2nc(NCCS(=O)(=O)O)nc(Nc3ccc(N=Nc4ccc(N=Nc5ccc(S(=O)(=O)O)cc5)cc4S(=O)(=O)O)c(C)c3)n2)ccc1N=Nc1ccc(N=Nc2ccc(S(=O)(=O)O)cc2)cc1S(=O)(=O)O` [Example 1], the “Bronzing (in words)” value in data set [1] was “do not give rise to bronzing”. Also, in data set [2], the “Ejection property (in words)” value is “good”.

Take `Cc1cc(Nc2nc(Nc3ccc(N=Nc4ccc(N=Nc5ccc(S(=O)(=O)O)cc5)cc4S(=O)(=O)O)c(C)c3)nc(N(CC(=O)O)CC(=O)O)n2)ccc1N=Nc1ccc(N=Nc2ccc(S(=O)(=O)O)cc2)cc1S(=O)(=O)O` [Example 2]: the “Bronzing (in words)” value in data set [1] is “do not give rise to bronzing”. In data set [2], the “Ejection property (in words)” value was “good”.
